According to PubChem BioAssay AID720504 (National Center for Advancing Translational Sciences (NCATS), 2013):
Among all 360,000 compounds or so, about 10,000 (2.8%) were called active. The inconclusive results got no clear call from the source; some entries with a clear call stand among them for comparison. Calls follow the shape of the dose curve; as a rule, active = well fitted inhibition curve with a large enough effect; inconclusive = small, poorly fitted or top-dose-only effect; inactive = flat fitted curve, though single readings scatter. Where the call is inconclusive, the potency comes from a doubtful curve fit.

Sequences of proteins named here, by UniProt entry; tags and fusion partners are left off.
UniProt P53350, whole entry, looked up: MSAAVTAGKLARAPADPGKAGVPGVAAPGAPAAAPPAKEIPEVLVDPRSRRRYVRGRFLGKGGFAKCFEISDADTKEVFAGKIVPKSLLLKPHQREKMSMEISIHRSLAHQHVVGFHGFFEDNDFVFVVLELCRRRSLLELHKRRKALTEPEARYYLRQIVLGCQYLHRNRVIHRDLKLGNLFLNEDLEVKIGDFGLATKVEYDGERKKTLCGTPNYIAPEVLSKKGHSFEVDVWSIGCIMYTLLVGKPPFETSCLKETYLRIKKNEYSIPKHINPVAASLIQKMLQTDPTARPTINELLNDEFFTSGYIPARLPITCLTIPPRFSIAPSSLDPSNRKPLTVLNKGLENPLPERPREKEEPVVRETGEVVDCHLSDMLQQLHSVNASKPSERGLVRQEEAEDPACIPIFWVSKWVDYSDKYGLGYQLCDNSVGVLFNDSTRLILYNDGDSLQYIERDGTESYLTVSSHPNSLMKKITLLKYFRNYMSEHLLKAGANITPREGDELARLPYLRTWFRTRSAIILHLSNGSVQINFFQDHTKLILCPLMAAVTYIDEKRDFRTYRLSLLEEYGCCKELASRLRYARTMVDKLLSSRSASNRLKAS

molecular target: Serine/threonine-protein kinase PLK1 (Homo sapiens) (UniProt P53350); experiment: qHTS for Inhibitors of PLK1-PDB (polo-like kinase 1 - polo-box domain): Primary Screen; details: Plk1 PBD binding of FITC phosphopeptide, fluorescence polarization; also: nearly all actives have a fitted effect of over 65% in size; as to max response, negative = inhibition: series mostly up to about 57 µM
% is scaled to controls: 0 for no effect and ±100 for the full control effect; potency is read from the fitted curve at half-maximal effect.

| Compound | max response, negative = inhibition | Potency |
| --- | --- | --- |
| Cc1cccc(C(=O)NNC(=O)c2cccc(C)c2)c1 | inactive: -9.21% |  |
| Cc1cc(OCc2cc(C(=O)N(C)Cc3nonc3C)no2)cc(C)c1Cl | inconclusive: -35.1% [inhibitor] |  |
| CCC(Oc1ccccc1)C(=O)Nc1nnc(C)s1 (configuration not stated) |  | inconclusive: 18.9 µM [inhibitor, partial curve] |
| COc1ccc(C(c2nnnn2CC2CCCO2)N2CCN(c3ccc(F)cc3)CC2)cc1 (configuration not stated) |  | active: 23.8 µM |
| O=C(NC(=S)Nc1cc(Cl)ccc1O)c1cccc(Br)c1 |  | inconclusive: 18.9 µM [inhibitor, partial curve] |
| CCn1ncc(NC(=S)Nc2ccc(OC)c(OC)c2)c1C(N)=O | inactive: -25% |  |
| COc1ccc(C(=O)NC(=S)Nc2cccc3cc(O)ccc23)cc1OC |  | inconclusive: 21.2 µM [inhibitor, partial curve] |
| CSc1nc2c(C)c(C)c(C)c(C)c2[nH]1 | inactive: -5.87% |  |
| O=C(Nc1nnc(Cc2ccccc2)s1)c1ccco1 | inactive: -1.59% |  |
| CC(=O)c1ccc(NS(=O)(=O)c2cccc(C(=O)Nc3ccccc3C(=O)O)c2)cc1 |  | inconclusive: 67 µM [inhibitor, partial curve] |
| O=C(CN1C(=O)C2CCCCC2C1=O)Nc1cccc(C(F)(F)F)c1 (configuration not stated) | inactive: 2.02% |  |
| CCCn1c(SCC(N)=O)nnc1-c1ccco1 |  | inconclusive: 26.7 µM [inhibitor, partial curve] |
| O=C(c1ccccc1)N1CCCC(C(=O)N2CCN(c3ccccc3)CC2)C1 (configuration not stated) |  | active: 26.7 µM |
| COC1CCN(C(=O)CC2C(=O)NCCN2CC(C)(C)C)CC1 (configuration not stated) |  | inconclusive: 29.9 µM [inhibitor, partial curve] |
| CSCCC(NC(N)=O)C(=O)Nc1cccc(S(=O)(=O)N2CCOCC2)c1 (configuration not stated) | inactive: 0.128% |  |
| CCOC(=O)c1sc(=S)n(-c2ccc(C)cc2)c1N |  | active: 10.6 µM |
| Cc1ccc(NC(=O)CN2CCC(C(=O)c3ccc4c(c3)OCCO4)CC2)cc1 |  | inconclusive: 15 µM [inhibitor, partial curve] |
| Cc1ccc2sc(=O)[nH]c2c1 |  | inconclusive: 26.7 µM [inhibitor, partial curve] |
| CN1CC(c2ccccn2)C2(SC(=S)N(Cc3ccccc3)C2=O)C12C(=O)Nc1ccccc12 (configuration not stated) |  | inconclusive: 23.8 µM [inhibitor, partial curve] |
| COc1ccc(-c2nc(CCl)cs2)cc1OC |  | inconclusive: 37.7 µM [inhibitor, single point] |
| O=C(NCCCn1ccnc1)c1nc(Cn2cc([N+](=O)[O-])cn2)no1 |  | inconclusive: 18.9 µM [inhibitor, partial curve] |
| CCN1C(=O)[C@H]2[C@@H](c3ccc(C)cc3)N3C(=O)N(c4ccc(OC)cc4)C(=O)[C@@]3(C)[C@H]2C1=O |  | active: 21.2 µM |
| Cc1ccc(COc2ccsc2-c2n[nH]c(=S)n2C)cc1 | inactive: 1.58% |  |
| FC(F)(F)c1ccc(-n2cnc3ccccc32)nc1 | inactive: -7.83% |  |

A draw from above in order of count of non-hydrogen atoms, smallest number first.

| Compound | max response, negative = inhibition | Potency |
| --- | --- | --- |
| CSc1nc2c(C)c(C)c(C)c(C)c2[nH]1 | inactive: -5.87% |  |
| COc1ccc(-c2nc(CCl)cs2)cc1OC |  | inconclusive: 37.7 µM [inhibitor, single point] |
| CCCn1c(SCC(N)=O)nnc1-c1ccco1 |  | inconclusive: 26.7 µM [inhibitor, partial curve] |
| FC(F)(F)c1ccc(-n2cnc3ccccc32)nc1 | inactive: -7.83% |  |
| O=C(Nc1nnc(Cc2ccccc2)s1)c1ccco1 | inactive: -1.59% |  |
| O=C(NC(=S)Nc1cc(Cl)ccc1O)c1cccc(Br)c1 |  | inconclusive: 18.9 µM [inhibitor, partial curve] |
| COC1CCN(C(=O)CC2C(=O)NCCN2CC(C)(C)C)CC1 (configuration not stated) |  | inconclusive: 29.9 µM [inhibitor, partial curve] |
| CCn1ncc(NC(=S)Nc2ccc(OC)c(OC)c2)c1C(N)=O | inactive: -25% |  |
| O=C(CN1C(=O)C2CCCCC2C1=O)Nc1cccc(C(F)(F)F)c1 (configuration not stated) | inactive: 2.02% |  |
| Cc1cc(OCc2cc(C(=O)N(C)Cc3nonc3C)no2)cc(C)c1Cl | inconclusive: -35.1% [inhibitor] |  |
| O=C(c1ccccc1)N1CCCC(C(=O)N2CCN(c3ccccc3)CC2)C1 (configuration not stated) |  | active: 26.7 µM |
| Cc1ccc(NC(=O)CN2CCC(C(=O)c3ccc4c(c3)OCCO4)CC2)cc1 |  | inconclusive: 15 µM [inhibitor, partial curve] |
| CN1CC(c2ccccn2)C2(SC(=S)N(Cc3ccccc3)C2=O)C12C(=O)Nc1ccccc12 (configuration not stated) |  | inconclusive: 23.8 µM [inhibitor, partial curve] |

The listing continues.

| Compound | max response, negative = inhibition | Potency |
| --- | --- | --- |
| CCCc1cc(=O)oc2cc(C)cc(OC(C)C(=O)NCc3ccccn3)c12 (configuration not stated) | inactive: -17% |  |
| COc1ccc(CNC(=O)c2cc3ccccc3oc2=O)cc1 | inactive: -18.3% |  |
| COc1ccc(C(C(=O)NCCC(C)C)N(CCN2CCOCC2)C(=O)Cn2nnc3ccccc32)c(OC)c1 (configuration not stated) |  | inconclusive: 21.2 µM [inhibitor, partial curve, poor fit] |
| CC(C(=O)O)N1C(=O)C2C3CC(C2C1=O)C1C(c2ccccc2)c2sc(=O)[nH]c2SC31 (configuration not stated) |  | inconclusive: 11.9 µM [inhibitor, partial curve, poor fit] |
| CCc1ccc(-n2c(=S)sc3c(=O)n(-c4ccccc4OC)c(=S)[nH]c32)cc1 |  | active: 11.9 µM |
| COc1ccc(OC)c2c(C)cc(N3CCCCCC3)nc12 |  | inconclusive: 29.9 µM [inhibitor, single point] |
| Cc1ccccc1-n1c(C)c(C#N)c(=O)c(-[n+]2ccccc2)c1[S-] |  | inconclusive: 26.7 µM [inhibitor, single point] |
| CC(C)C[C@@H](CNCC(=O)[C@H](C)NC(=O)c1[nH]cnc1C(=O)N[C@H](CN)CC(C)C)NC(=O)c1nc[nH]c1C(=O)N[C@@H](C)C(=O)O |  | inconclusive: 23.8 µM [inhibitor, single point] |
| N#Cc1c(C#N)c(SSc2c(C#N)c(C#N)c(N)n2-c2ccccc2)n(-c2ccccc2)c1N |  | active: 2.67 µM |
| COCCSc1nc2c(c(=O)[nH]c(=O)n2C)n1CCCc1ccccc1 |  | active: 21.2 µM |
| CCOC(=O)CNC(=O)CSc1nc2cccnc2n1C1CCCCC1 |  | inconclusive: 18.9 µM [inhibitor, partial curve] |
| O=C(Cc1ccccc1)Nc1ccc(C(=O)NCC2COc3ccccc3O2)cc1 (configuration not stated) | inactive: -15.8% |  |
| Cc1ccc(-n2cccc2C(=S)N=P(N(C)C)(N(C)C)N(C)C)cc1 |  | inconclusive: 37.7 µM [inhibitor, single point] |
| COc1ccc(/C(=N\Nc2ccccc2C(=O)O)c2ccccc2)cc1 | inconclusive: -35.1% [inhibitor] |  |
| CC(C)c1ccc(CNc2ccc3c(c2)ncn3C)cc1 | inactive: 1.79% |  |
| COc1ccc(C(C)=O)cc1COC(=O)[C@H](Cc1ccccc1)NC(=O)c1ccco1 |  | inconclusive: 21.2 µM [inhibitor, single point] |
| CCNC(=O)C(=O)NCC(c1cccs1)S(=O)(=O)c1ccc(C)cc1 (configuration not stated) | inactive: -14.8% |  |
| COc1cc(/C=N/NC(=O)c2cccc([N+](=O)[O-])c2)ccc1OC(=O)c1ccco1 |  | inconclusive: 23.8 µM [inhibitor, single point] |
| Cc1cc(NC(=O)CSc2nnc(NC(=O)C3CC(=O)N(c4ccccc4)C3)s2)no1 (configuration not stated) | inactive: 3.31% |  |
| O=C(Nc1c(-c2ccccc2)[nH][nH]c1=O)c1ccccc1 |  | inconclusive: 23.8 µM [inhibitor, partial curve] |
| O=C(CN1C(=O)c2ccccc2S1(=O)=O)Nc1ccccc1 | inactive: -2.34% |  |
| COc1ccc(NC(=S)Nc2cccc3cnccc23)cc1 |  | inconclusive: 29.9 µM [inhibitor, single point] |
| CCOC(=O)C1CCN(C(=O)COC(=O)c2ccc3c(c2)C(=O)N(c2ccc(OCC)cc2)C3=O)CC1 | inactive: -12.3% |  |
| O=C(c1cc(-c2ccc(Cl)cc2)on1)N1CCOCC1 | inactive: -11.5% |  |

| Compound | max response, negative = inhibition | Potency |
| --- | --- | --- |
| N#Cc1c(C#N)c(-c2ccccc2)n(-c2ccccc2)c1N | inactive: -13.5% |  |
| COc1cc(OC)cc(C(=O)NCC(=O)Nc2ccc(-c3ccccc3)cc2)c1 | inactive: 4.7% |  |
| COc1nnc(-c2ccccc2)s1 |  | inconclusive: 23.8 µM [inhibitor, partial curve] |
| COc1ccc(NC(=O)CN(C)CC(=O)Nc2sc3c(c2C(N)=O)CCC3)cc1 |  | inconclusive: 21.2 µM [inhibitor, single point] |
| O=C(CNC(=O)c1ccc(S(=O)(=O)N2CCCC2)cc1)N/N=C/c1ccc(F)cc1 |  | inconclusive: 8.44 µM [inhibitor, single point] |
| O=C(CSc1ncn[nH]1)Nc1ccccc1C(=O)O | inactive: -2.2% |  |
| COC(=O)CCN(C(=O)c1ccc(N2CCCCC2)c([N+](=O)[O-])c1)c1ccccn1 | inactive: -4.37% |  |
| CCC1=Nc2cc(C(=O)NCCN3CCOCC3)ccc2Sc2ccc(Br)cc21 | inactive: -7.95% |  |
| CN1CCC(NC(=O)c2cccc(Oc3ccccc3)c2)CC1 | inactive: -0.186% |  |
| COc1ccccc1NS(=O)(=O)c1cc(NC(=O)c2ccc3c(c2)OCCO3)ccc1C |  | inconclusive: 23.8 µM [inhibitor, single point] |
| O=C(O)/C=C/C(=O)Nc1ccc(Cc2ccc(NC(=O)/C=C/C(=O)O)cc2)cc1 |  | inconclusive: 75.2 µM [inhibitor, partial curve] |
| CCN(Cc1ccncc1)Cc1c(O)ccc2cc(Br)ccc12 |  | active: 10.6 µM |
| C=CC(=O)Oc1ccc(N2Cc3ccccc3C2=O)cc1 |  | inconclusive: 7.52 µM [inhibitor, partial curve] |
| Cc1nn(C)cc1CNC(=O)c1cccc(F)c1 |  | inconclusive: 21.2 µM [inhibitor, single point] |
| CC(=Nc1cc(C(=O)c2ccccc2)ccc1N)C1=C(O)CC(C)(C)CC1=O |  | active: 29.9 µM |
| Cc1ccc(-n2c(=O)[nH]c3c(C(N)=O)nc(C(C)C)nc32)cc1 |  | inconclusive: 33.6 µM [inhibitor, partial curve] |
| Cc1[nH]c(C(=O)O)c(C#N)c1C(=O)c1ccccc1 |  | inconclusive: 1.89 µM [inhibitor, partial curve] |
| CCC(=O)Nc1ccc(NC(=S)NC(=O)/C=C/c2ccco2)cc1 |  | inconclusive: 37.7 µM [inhibitor, single point] |
| COc1ccccc1-c1nc2s/c(=C\c3cccs3)c(=O)n2n1 | inactive: -29.9% |  |
| C/C(=C\c1ccccc1)CN1CCC(C(=O)N2CCC(C)CC2)CC1 | inactive: -21.5% |  |
| CC(=O)C1=C(O)C(=O)N(c2ccc(Br)cn2)C1c1ccccc1[N+](=O)[O-] (configuration not stated) |  | inconclusive: 29.9 µM [inhibitor, partial curve] |
| O=c1c(C(c2ccc(Cl)cc2)c2c(O)nc3n(c2=O)CCCS3)c(O)nc2n1CCCS2 |  | inconclusive: 29.9 µM [inhibitor, partial curve] |
| CC(C)(C)c1ccc(C(=O)NC(=S)Nc2ccc(N3CCOCC3)cc2)cc1 | inactive: -7.92% |  |
| Cc1ccccc1NC(=O)COC(=O)c1ccc(S(C)(=O)=O)c([N+](=O)[O-])c1 |  | inconclusive: 37.7 µM [inhibitor, partial curve] |
